Consider one molecule from patent US20110301095A1 (SANFORD BURNHAM MEDICAL RESEARCH INSTITUTE CALIFORNIA, published 2011).

These are yes or no findings as the source states them, for the method shown. In cells and extracts the contact can be indirect. Binding can be weak; no strength is given. Sequences can lack the tags named with a protein.

The experiment addresses Flag-HIF-1α translated in vitro. As to the kind of experiment: in vitro pull-down: 35S-labelled HIF-1α on nickel beads coated with His-FoxA2, phosphor-imager (FIG. 3H).

B1: His-FoxA2 (mouse FoxA2 in pET15b, His-tagged fusion protein purified from bacteria) (protein, UniProt P35583 1-459, looked up, not shown: small tags and cut ends)
chain: MLGAVKMEGHEPSDWSSYYAEPEGYSSVSNMNAGLGMNGMNTYMSMSAAAMGGGSGNMSAGSMNMSSYVGAGMSPSLAGMSPGAGAMAGMSGSAGAAGVAGMGPHLSPSLSPLGGQAAGAMGGLAPYANMNSMSPMYGQAGLSRARDPKTYRRSYTHAKPPYSYISLITMAIQQSPNKMLTLSEIYQWIMDLFPFYRQNQQRWQNSIRHSLSFNDCFLKVPRSPDKPGKGSFWTLHPDSGNMFENGCYLRRQKRFKCEKQLALKEAAGAASSGGKKTAPGSQASQAQLGEAAGSASETPAGTESPHSSASPCQEHKRGGLSELKGAPASALSPPEPAPSPGQQQQAAAHLLGPPHHPGLPPEAHLKPEHHYAFNHPFSINNLMSSEQQHHHSHHHHQPHKMDLKAYEQVMHYPGGYGSPMPGSLAMGPVTNKAGLDASPLAADTSYYQGVYSRPIMNSS
B1: the binding result is recorded as “binds”.
